Assay results reported in the supplement of paper PMC12282887.
Where a name gives a salt, the structure may show the parent alone. Values are raw readings; no control value is given beside them.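 Maximum concentrations were near the MIC for antimicrobials, 500 µM for most other compounds, and as high as 1 mM for known inducer-like compounds. Deletion strains began with a tenfold smaller inoculum, and wells with growth under 10% of the overall median counted as non-growing.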 Where a SMILES comes first, the peptide text is derived from it. Bridges are numbered along the chain shown (N, C = ends). [ ]: non-standard residue; d: D form. The star is where a group is joined. Heptanoyl(5-Me) = CCC(C)CCCC(=O)*; Dab = NCC[C@H](N)C(=O)O

Test system: Escherichia coli BW25113
Assay: growth (OD600 area under curve, 8 h) (OD600 x h); higher = more growth
Method: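 E. coli BW25113 reporter strains (wild type, ΔmarA, ΔsoxS, Δrob, each carrying one of 8 lux reporter plasmids) were grown in 40 µl LB in 384-well plates at 37°C, 800 rpm, with each compound at 4 two-fold concentrations, in biological duplicates. Growth is the baseline-corrected OD600 area under the curve over 8 h (0-8 h WT, 1-9 h deletion strains).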

O=C(O)COCCN1CCN(C(c2ccccc2)c2ccc(Cl)cc2)CC1 (centres undefined) [Cetirizine dihydrochloride]
growth
Conditions | reporter plasmid: EVC | reporter plasmid: acrABp | reporter plasmid: marRABp | reporter plasmid: micFp | reporter plasmid: ompFp | reporter plasmid: robp | reporter plasmid: soxSp | reporter plasmid: tolCp
28.9 µg/ml, genetic background: wild type | 2.5 | 2.95 | 3.24 | 3.05 | 2.84 | 3.14 | 2.81 | 2.99
28.9 µg/ml, genetic background: ΔmarA | 2.91 | 3.76 | 3.35 | 2.93 | 3.08 | 3.1 | 2.46 | 2.8
28.9 µg/ml, genetic background: Δrob | 2.08 | 2.94 | 3.04 | 2.94 | 2.36 | 2.36 | 2.7 | 2.81
28.9 µg/ml, genetic background: ΔsoxS | 2.46 | 2.74 | 2.81 | 2.23 | 2.38 | 2.66 | 2.54 | 2.25
57.7 µg/ml, genetic background: wild type | 2.57 | 2.92 | 3.39 | 2.98 | 2.87 | 3.11 | 2.82 | 2.83
57.7 µg/ml, genetic background: ΔmarA | 2.92 | 4.01 | 3.43 | 2.63 | 3.27 | 3.13 | 2.56 | 2.75
57.7 µg/ml, genetic background: Δrob | 2.03 | 3.07 | 3.084 | 2.71 | 2.44 | 2.359 | 2.48 | 2.63
57.7 µg/ml, genetic background: ΔsoxS | 2.22 | 2.74 | 3.05 | 2.232 | 2.6 | 2.869 | 2.5 | 2.2
115.5 µg/ml, genetic background: wild type | 2.51 | 3.31 | 3.42 | 3 | 3.135 | 3.184 | 2.69 | 2.91
115.5 µg/ml, genetic background: ΔmarA | 2.73 | 4.1 | 3.44 | 2.71 | 3.37 | 3.37 | 2.52 | 2.95
115.5 µg/ml, genetic background: Δrob | 2.17 | 3.6 | 3.42 | 2.55 | 2.22 | 2.65 | 2.48 | 2.67
115.5 µg/ml, genetic background: ΔsoxS | 2.3 | 2.99 | 3.33 | 2.09 | 2.99 | 3.084 | 2.71 | 2.2241
230.9 µg/ml, genetic background: wild type | 2.688 | 2.95 | 3.24 | 2.932 | 2.87 | 3.05 | 2.62 | 2.95
230.9 µg/ml, genetic background: ΔmarA | 2.695 | 3.97 | 3.43 | 2.5606 | 3.1 | 3.58 | 2.39 | 2.65
230.9 µg/ml, genetic background: Δrob | 1.85 | 3.322 | 3.45 | 2.3 | 2.37 | 2.78 | 2.23 | 2.21
230.9 µg/ml, genetic background: ΔsoxS | 2.2 | 2.99 | 3.46 | 1.97 | 3.32 | 3.167 | 2.76 | 2.11

CCC(C)CCCC(=O)N[C@@H](CCN)C(=O)N[C@H](C(=O)N[C@@H](CCN)C(=O)N[C@H]1CCNC(=O)[C@H]([C@@H](C)O)NC(=O)[C@H](CCN)NC(=O)[C@H](CCN)NC(=O)[C@H](CC(C)C)NC(=O)[C@@H](CC(C)C)NC(=O)[C@H](CCN)NC1=O)[C@@H](C)O (stereo partly drawn) [Colistin] ({Heptanoyl(5-Me)}-[Dab]T[Dab][Dab][Dab][dL]L[Dab][Dab]T; lactam 4-C)
growth
Conditions | reporter plasmid: EVC | reporter plasmid: acrABp | reporter plasmid: marRABp | reporter plasmid: micFp | reporter plasmid: ompFp | reporter plasmid: robp | reporter plasmid: soxSp | reporter plasmid: tolCp
0.048 µg/ml, genetic background: wild type | 2.7 | 3.15 | 3.413 | 3.325 | 3.31 | 3.49 | 2.94 | 3.29
0.048 µg/ml, genetic background: ΔmarA | 3.01 | 4.16 | 3.743 | 3.11 | 3.52 | 3.74 | 2.7 | 2.66
0.048 µg/ml, genetic background: Δrob | 2.802 | 3.09 | 3.47 | 3.18 | 2.85 | 2.7 | 2.74 | 2.99
0.048 µg/ml, genetic background: ΔsoxS | 3.29 | 3.2 | 3.24 | 2.84 | 3.23 | 3.27 | 3.15 | 2.97
0.1 µg/ml, genetic background: wild type | 2.67 | 2.78 | 3.34 | 3.04 | 3.12 | 3.28 | 2.89 | 3.24
0.1 µg/ml, genetic background: ΔmarA | 3.01 | 4.32 | 3.63 | 2.81 | 3.47 | 3.81 | 2.74 | 2.48
0.1 µg/ml, genetic background: Δrob | 2.92 | 3.1475 | 3.18 | 2.94 | 2.69 | 2.83 | 2.8 | 2.99
0.1 µg/ml, genetic background: ΔsoxS | 3.15 | 3.33 | 3.28 | 2.95 | 3.55 | 3.13 | 3.18 | 3.01
0.19 µg/ml, genetic background: wild type | 2.59 | 2.87 | 3.39 | 2.45 | 3.16 | 3.24 | 2.73 | 3.24
0.19 µg/ml, genetic background: ΔmarA | 2.01 | 3.64 | 2.91 | 1.56 | 2.86 | 3.3 | 2.12 | 1.75
0.19 µg/ml, genetic background: Δrob | 2.6 | 2.84 | 2.77 | 2.15 | 2.39 | 1.95 | 1.32 | 2.16
0.19 µg/ml, genetic background: ΔsoxS | 2.76 | 2.82 | 2.96 | 2.61 | 3.34 | 3.05 | 3.01 | 2.78
0.38 µg/ml, genetic background: wild type | 1.71 | 1.53 | 1.64 | 0.653 | 0.577 | 1.39 | 1.14 | 2.4273
0.38 µg/ml, genetic background: ΔmarA | 0.000694 | 0.0209 | 0.0379 | -0.0588 | -0.00126 | 0.00429 | 0.31 | 0.0226
0.38 µg/ml, genetic background: Δrob | 0.000824 | -0.0284 | 0.311 | -0.0566 | -0.0953 | -0.0308 | -0.0151 | 0.177
0.38 µg/ml, genetic background: ΔsoxS | 0.872 | 0.585 | 0.43 | 0.0202 | 0.464 | 0.633 | 0.18 | 1.16

C[C@H]1c2cccc(O)c2C(=O)C2=C(O)[C@]3(O)C(=O)C(C(N)=O)=C(O)[C@@H](N(C)C)[C@@H]3[C@@H](O)[C@@H]21 [Doxycycline]
growth
Conditions | reporter plasmid: EVC | reporter plasmid: acrABp | reporter plasmid: marRABp | reporter plasmid: micFp | reporter plasmid: ompFp | reporter plasmid: robp | reporter plasmid: soxSp | reporter plasmid: tolCp
0.064 µg/ml, genetic background: wild type | 2.88 | 2.8 | 3.05 | 3.02 | 2.65 | 2.89 | 2.93 | 2.9
0.064 µg/ml, genetic background: ΔmarA | 2.86 | 4.14 | 3.4139 | 3.01 | 3.11 | 3.37 | 2.88 | 2.64
0.064 µg/ml, genetic background: Δrob | 2.41 | 3.13 | 3.1 | 3.04 | 2.43 | 2.31 | 2.84 | 2.99
0.064 µg/ml, genetic background: ΔsoxS | 2.96 | 2.93 | 2.96 | 2.61 | 2.99 | 3.02 | 2.96 | 2.69
0.13 µg/ml, genetic background: wild type | 2.52 | 2.37 | 2.83 | 2.65 | 2.24 | 2.59 | 2.72 | 2.7
0.13 µg/ml, genetic background: ΔmarA | 2.26 | 3.18 | 2.57 | 2.56 | 2.63 | 2.91 | 2.69 | 1.913
0.13 µg/ml, genetic background: Δrob | 2.04 | 2.27 | 2.5 | 2.39 | 1.76 | 1.59 | 2.61 | 2.48
0.13 µg/ml, genetic background: ΔsoxS | 2.36 | 2.39 | 2.54 | 2.33 | 2.4493 | 2.21 | 2.26 | 2.5
0.26 µg/ml, genetic background: wild type | 2.12 | 1.59 | 2.17 | 2.01 | 1.85 | 2.03 | 2.41 | 2.27
0.26 µg/ml, genetic background: ΔmarA | 1.1 | 2.11 | 1.52 | 1.78 | 1.94 | 1.69 | 2.34 | 1.04
0.26 µg/ml, genetic background: Δrob | 1.11 | 1.28 | 1.55 | 1.45 | 1.04 | 0.781 | 2.16 | 1.64
0.26 µg/ml, genetic background: ΔsoxS | 1.85 | 1.8 | 2.05 | 1.381 | 2.05 | 1.53 | 1.35 | 1.73
0.51 µg/ml, genetic background: wild type | 0.751 | -0.204 | 0.304 | 0.663 | 0.222 | 0.412 | 0.781 | 0.985
0.51 µg/ml, genetic background: ΔmarA | 0.0409 | -0.0341 | 0.0603 | 0.251 | -0.0503 | 0.0961 | 0.237 | 0.156
0.51 µg/ml, genetic background: Δrob | -0.162 | 0.00139 | 0.0233 | 0.047 | -0.0563 | -0.043 | 0.348 | 0.334
0.51 µg/ml, genetic background: ΔsoxS | 0.39 | 0.0771 | 0.106 | 0.0499 | -0.000138 | -0.0326 | 0.12 | 0.428
